Values quoted from earlier work, collected in patent US9481667B2, “Salts and solid forms of isoquinolinones and composition comprising and methods of using the same” (Infinity Pharmaceuticals, Inc., priority 2013, dated 2016).
At least one compound was matched to its structure with a doubt left.

Tested on: haematological malignancies
Details: cited from earlier work

**Q.** Which “Effect on lymph nodes and lymphocytes in CLL patients” value (CLL patients) does the source give for `CC[C@H](Nc1ncnc2[nH]cnc12)c1nc2cccc(F)c2c(=O)n1-c1ccccc1` [CAL-101] here?
**A.** Its value is “induces rapid lymph node reduction and redistribution of lymphocytes into the circulation”.

**Q.** And the “Activity in CLL” value (phase 1 trial, patients with poor prognostic characteristics)?
**A.** The value was “showed activity”.

**Q.** What about the “Activity in mantle cell lymphoma and refractory non Hodgkin's lymphoma” value (single agent) of the same compound?
**A.** Its value is “active”.
